Test results taken from PubChem BioAssay AID2314 (National Center for Advancing Translational Sciences (NCATS), 2010).
The entries are a selection whose mix differs from that of the whole data set. Calls of active or inactive are those of the source. Cut-off read from the data, not from the text of the source: active = max response mostly above about 13% (no sharp cut-off); inactive = mostly below about 14%.

experiment: Cycloheximide Counterscreen for Small Molecule Inhibitors of Shiga Toxin; settings: cell reporter, cycloheximide protein synthesis inhibition counterscreen; hits give high values; note: read at 38.3 µM for the half of the compounds with a filed dose; 0% is about no effect

Structure (SMILES) | max response
COc1ccc(/C(N)=N/OC(=O)CSc2ccccc2)cc1 | active: 39.1%
